No constants are given. Whether binding was seen depends on the method and setting. Binding seen in cells or lysates may run through a third protein. Some entries that bind do so weakly or less than the wild type.
T1: full-length, human ROS-GC1 overexpressed in HEK293 cells (human), Q02846
T1 chain: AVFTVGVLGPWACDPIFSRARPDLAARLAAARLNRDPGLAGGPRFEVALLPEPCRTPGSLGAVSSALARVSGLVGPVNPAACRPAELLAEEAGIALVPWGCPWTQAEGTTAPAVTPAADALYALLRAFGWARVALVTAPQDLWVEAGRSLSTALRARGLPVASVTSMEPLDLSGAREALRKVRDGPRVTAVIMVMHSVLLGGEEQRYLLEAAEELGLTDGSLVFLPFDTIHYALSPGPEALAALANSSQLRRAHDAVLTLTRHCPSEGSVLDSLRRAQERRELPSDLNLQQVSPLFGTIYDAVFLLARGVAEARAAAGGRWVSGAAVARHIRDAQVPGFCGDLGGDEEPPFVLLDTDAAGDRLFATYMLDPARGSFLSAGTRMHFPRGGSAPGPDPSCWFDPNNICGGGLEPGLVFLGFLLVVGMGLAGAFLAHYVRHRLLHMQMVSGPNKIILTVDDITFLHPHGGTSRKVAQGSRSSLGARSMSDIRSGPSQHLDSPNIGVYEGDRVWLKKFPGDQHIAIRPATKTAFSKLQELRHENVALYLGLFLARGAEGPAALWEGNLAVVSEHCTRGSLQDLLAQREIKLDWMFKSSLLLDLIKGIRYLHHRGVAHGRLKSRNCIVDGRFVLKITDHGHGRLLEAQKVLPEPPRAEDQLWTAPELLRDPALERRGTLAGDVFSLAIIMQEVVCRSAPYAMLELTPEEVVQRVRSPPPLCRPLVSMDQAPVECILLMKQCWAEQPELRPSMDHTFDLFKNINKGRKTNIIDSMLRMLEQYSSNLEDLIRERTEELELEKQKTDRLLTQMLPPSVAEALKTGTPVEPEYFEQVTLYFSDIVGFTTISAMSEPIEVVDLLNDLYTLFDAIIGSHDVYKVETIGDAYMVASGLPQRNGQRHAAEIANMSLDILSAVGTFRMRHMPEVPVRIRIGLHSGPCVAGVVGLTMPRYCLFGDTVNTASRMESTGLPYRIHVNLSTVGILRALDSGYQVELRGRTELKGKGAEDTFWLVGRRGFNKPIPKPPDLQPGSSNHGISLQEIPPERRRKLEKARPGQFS

Protein sequences, listed by entry. Tags and fused reporters are not part of them. Residues count along the entry.
UniProt P55203, 57-1110: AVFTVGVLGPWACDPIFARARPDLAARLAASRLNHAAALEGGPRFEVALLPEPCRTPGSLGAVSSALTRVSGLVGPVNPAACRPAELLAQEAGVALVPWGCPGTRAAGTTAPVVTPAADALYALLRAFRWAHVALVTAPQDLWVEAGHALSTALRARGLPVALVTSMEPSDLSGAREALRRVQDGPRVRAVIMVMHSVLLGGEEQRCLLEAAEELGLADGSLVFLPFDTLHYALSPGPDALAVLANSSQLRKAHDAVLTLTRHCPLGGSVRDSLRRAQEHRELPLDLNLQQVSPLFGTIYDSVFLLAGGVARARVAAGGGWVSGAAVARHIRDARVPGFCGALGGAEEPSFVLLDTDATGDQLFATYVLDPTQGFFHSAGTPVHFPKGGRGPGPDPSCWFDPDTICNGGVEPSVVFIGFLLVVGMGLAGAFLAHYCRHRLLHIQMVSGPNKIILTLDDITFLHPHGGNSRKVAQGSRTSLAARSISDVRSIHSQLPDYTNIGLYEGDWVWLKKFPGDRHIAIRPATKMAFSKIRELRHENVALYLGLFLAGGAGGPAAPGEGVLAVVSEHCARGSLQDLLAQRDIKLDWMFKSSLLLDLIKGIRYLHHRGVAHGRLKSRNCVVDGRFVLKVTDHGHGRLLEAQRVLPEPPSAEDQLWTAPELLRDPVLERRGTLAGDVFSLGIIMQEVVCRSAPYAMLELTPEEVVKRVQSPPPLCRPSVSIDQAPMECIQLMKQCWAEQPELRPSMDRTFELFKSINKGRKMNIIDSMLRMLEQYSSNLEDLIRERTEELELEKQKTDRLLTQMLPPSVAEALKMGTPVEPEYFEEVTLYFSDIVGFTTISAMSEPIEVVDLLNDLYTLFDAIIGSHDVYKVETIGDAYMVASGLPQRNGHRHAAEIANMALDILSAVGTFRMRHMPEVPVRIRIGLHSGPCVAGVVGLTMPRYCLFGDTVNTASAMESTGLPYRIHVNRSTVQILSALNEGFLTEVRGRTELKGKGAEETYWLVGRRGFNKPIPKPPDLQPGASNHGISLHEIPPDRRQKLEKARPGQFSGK


Legend:
[1] = target: rod-outer-segment guanylyl cyclase 1 (ROS-GC1), native full-length, bovine, from ROS preparations (bovine) (UniProt P55203); assay: cross-linking
[2] = target: T1, full-length, human ROS-GC1 …; assay: cross-linking; conditions: remark: other sources report otherwise

binding [1] | binding [2] | Molecule
binds |  | rod-outer-segment guanylyl cyclase 1 (ROS-GC1), native full-length, bovine, from ROS preparations (from UniProt P55203 57-1110) (enzyme)
 | binds | full-length, human ROS-GC1 overexpressed in HEK293 cells, Q02846 52-1103 (enzyme) AVFTVGVLGPWACDPIFSRARPDLAARLAAARLNRDPGLAGGPRFEVALLPEPCRTPGSLGAVSSALARVSGLVGPVNPAACRPAELLAEEAGIALVPWGCPWTQAEGTTAPAVTPAADALYALLRAFGWARVALVTAPQDLWVEAGRSLSTALRARGLPVASVTSMEPLDLSGAREALRKVRDGPRVTAVIMVMHSVLLGGEEQRYLLEAAEELGLTDGSLVFLPFDTIHYALSPGPEALAALANSSQLRRAHDAVLTLTRHCPSEGSVLDSLRRAQERRELPSDLNLQQVSPLFGTIYDAVFLLARGVAEARAAAGGRWVSGAAVARHIRDAQVPGFCGDLGGDEEPPFVLLDTDAAGDRLFATYMLDPARGSFLSAGTRMHFPRGGSAPGPDPSCWFDPNNICGGGLEPGLVFLGFLLVVGMGLAGAFLAHYVRHRLLHMQMVSGPNKIILTVDDITFLHPHGGTSRKVAQGSRSSLGARSMSDIRSGPSQHLDSPNIGVYEGDRVWLKKFPGDQHIAIRPATKTAFSKLQELRHENVALYLGLFLARGAEGPAALWEGNLAVVSEHCTRGSLQDLLAQREIKLDWMFKSSLLLDLIKGIRYLHHRGVAHGRLKSRNCIVDGRFVLKITDHGHGRLLEAQKVLPEPPRAEDQLWTAPELLRDPALERRGTLAGDVFSLAIIMQEVVCRSAPYAMLELTPEEVVQRVRSPPPLCRPLVSMDQAPVECILLMKQCWAEQPELRPSMDHTFDLFKNINKGRKTNIIDSMLRMLEQYSSNLEDLIRERTEELELEKQKTDRLLTQMLPPSVAEALKTGTPVEPEYFEQVTLYFSDIVGFTTISAMSEPIEVVDLLNDLYTLFDAIIGSHDVYKVETIGDAYMVASGLPQRNGQRHAAEIANMSLDILSAVGTFRMRHMPEVPVRIRIGLHSGPCVAGVVGLTMPRYCLFGDTVNTASRMESTGLPYRIHVNLSTVGILRALDSGYQVELRGRTELKGKGAEDTFWLVGRRGFNKPIPKPPDLQPGSSNHGISLQEIPPERRRKLEKARPGQFS

— doi:10.1101/2020.09.25.312835 (bioRxiv, 2020)
